We go through one substance from paper PMC4829694.

The chains behind the UniProt entries cited, without tags or fusion partners. Where a name states a change or a piece, a line headed by the entry shows the natural chain unless it says otherwise.
UniProt P23772: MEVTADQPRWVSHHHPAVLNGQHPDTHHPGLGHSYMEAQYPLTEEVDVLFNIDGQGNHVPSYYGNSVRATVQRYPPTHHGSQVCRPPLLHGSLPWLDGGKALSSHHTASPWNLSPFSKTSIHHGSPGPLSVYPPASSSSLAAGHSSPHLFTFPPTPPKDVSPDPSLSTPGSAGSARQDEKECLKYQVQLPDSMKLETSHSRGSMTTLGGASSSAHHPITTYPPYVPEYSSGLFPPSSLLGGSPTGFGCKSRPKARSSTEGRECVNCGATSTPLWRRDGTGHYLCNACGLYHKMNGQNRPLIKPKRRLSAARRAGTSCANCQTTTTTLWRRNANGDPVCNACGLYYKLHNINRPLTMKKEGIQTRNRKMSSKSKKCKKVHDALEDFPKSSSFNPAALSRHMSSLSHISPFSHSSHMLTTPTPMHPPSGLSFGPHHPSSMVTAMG
UniProt Q6PDQ2: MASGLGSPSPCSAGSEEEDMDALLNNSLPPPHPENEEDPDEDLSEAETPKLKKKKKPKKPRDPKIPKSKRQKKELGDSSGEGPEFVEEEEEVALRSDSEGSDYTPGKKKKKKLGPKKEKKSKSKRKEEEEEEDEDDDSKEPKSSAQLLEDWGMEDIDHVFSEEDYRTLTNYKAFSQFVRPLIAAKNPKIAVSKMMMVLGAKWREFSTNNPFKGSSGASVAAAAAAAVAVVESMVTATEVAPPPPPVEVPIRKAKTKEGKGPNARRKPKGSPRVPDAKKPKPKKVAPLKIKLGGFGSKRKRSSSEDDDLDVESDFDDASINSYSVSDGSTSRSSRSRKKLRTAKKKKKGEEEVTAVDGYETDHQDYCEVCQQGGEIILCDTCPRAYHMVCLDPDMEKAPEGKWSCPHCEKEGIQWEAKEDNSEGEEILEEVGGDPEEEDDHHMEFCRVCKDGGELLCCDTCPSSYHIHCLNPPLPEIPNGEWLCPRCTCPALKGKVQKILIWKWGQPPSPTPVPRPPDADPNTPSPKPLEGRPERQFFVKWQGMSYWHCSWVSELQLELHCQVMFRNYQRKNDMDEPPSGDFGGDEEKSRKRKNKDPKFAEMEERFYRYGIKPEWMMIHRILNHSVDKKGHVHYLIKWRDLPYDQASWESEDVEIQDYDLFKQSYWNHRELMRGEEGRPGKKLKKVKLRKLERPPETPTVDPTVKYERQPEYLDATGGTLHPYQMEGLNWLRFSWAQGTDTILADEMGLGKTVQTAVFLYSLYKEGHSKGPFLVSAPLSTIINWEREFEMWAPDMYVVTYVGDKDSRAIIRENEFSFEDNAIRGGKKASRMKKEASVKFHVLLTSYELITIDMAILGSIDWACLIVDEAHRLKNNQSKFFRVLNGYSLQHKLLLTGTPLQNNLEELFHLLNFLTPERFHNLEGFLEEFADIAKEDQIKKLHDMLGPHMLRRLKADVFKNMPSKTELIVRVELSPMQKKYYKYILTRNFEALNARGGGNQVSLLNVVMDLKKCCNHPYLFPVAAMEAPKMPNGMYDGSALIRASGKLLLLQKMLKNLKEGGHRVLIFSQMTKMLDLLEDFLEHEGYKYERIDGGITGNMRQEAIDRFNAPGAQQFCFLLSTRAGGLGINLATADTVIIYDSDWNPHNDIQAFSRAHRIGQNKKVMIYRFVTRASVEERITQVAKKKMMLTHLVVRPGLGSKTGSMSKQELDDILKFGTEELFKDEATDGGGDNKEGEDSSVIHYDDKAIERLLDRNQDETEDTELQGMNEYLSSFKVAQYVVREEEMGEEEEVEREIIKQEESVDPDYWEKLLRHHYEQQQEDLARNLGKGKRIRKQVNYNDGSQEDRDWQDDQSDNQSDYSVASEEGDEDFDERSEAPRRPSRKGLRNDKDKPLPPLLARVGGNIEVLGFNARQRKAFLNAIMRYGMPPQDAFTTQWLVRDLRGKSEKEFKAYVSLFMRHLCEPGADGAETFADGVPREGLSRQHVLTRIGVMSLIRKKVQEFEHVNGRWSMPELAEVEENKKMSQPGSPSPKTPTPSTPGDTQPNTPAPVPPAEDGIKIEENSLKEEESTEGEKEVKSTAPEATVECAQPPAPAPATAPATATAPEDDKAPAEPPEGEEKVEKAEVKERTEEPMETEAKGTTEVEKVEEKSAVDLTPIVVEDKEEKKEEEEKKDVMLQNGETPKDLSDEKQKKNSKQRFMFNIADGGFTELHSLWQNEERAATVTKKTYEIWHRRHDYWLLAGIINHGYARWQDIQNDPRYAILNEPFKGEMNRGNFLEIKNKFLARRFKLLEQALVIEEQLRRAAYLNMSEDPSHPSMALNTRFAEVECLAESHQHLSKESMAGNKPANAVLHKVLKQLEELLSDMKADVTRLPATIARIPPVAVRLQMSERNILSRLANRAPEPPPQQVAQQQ

No constants are given. Whether binding was seen depends on the method and setting. In cells and extracts the contact can be indirect. Binding can be weak; no strength is given.

The target in the assay is Flag-tagged Gata3 dNCF (deletion of both zinc fingers) (UniProt P23772). The experiment in a line: co-IP; 293T cells co-transfected with Flag-tagged Gata3 (WT or mutant) and the Myc- or HA-tagged partner; RIPA lysates; IP with anti-Flag mAb, IB with anti-Myc or anti-HA.

As for “Myc-tagged Chd4 (from UniProt Q6PDQ2 1-1915)”, the binding result is reported as “binds weakly”.
